Our source for the binding values is publication doi:10.1101/2025.08.08.669356.

In experiment [1] the target is T1, recombinant human apolipoprotein ApoA4 (human) (UniProt P06727).
T1 sequence: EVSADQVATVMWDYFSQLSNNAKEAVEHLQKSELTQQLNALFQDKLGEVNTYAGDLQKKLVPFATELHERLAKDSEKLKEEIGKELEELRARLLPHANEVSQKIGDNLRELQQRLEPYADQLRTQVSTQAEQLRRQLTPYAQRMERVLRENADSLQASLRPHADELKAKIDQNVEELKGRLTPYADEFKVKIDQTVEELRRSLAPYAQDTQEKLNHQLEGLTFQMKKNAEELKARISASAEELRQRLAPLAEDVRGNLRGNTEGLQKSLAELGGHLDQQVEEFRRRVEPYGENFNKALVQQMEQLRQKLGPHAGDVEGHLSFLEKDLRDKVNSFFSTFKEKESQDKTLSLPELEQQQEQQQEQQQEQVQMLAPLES
Nature of the experiment: ELISA. On the technique in general: In an ELISA, binding on a coated surface is turned into a signal by an enzyme label.

Experiment [2] concerns the target T2, recombinant soluble human CD300LG-Fc fusion protein (human) (UniProt Q6UXG3).
T2 sequence: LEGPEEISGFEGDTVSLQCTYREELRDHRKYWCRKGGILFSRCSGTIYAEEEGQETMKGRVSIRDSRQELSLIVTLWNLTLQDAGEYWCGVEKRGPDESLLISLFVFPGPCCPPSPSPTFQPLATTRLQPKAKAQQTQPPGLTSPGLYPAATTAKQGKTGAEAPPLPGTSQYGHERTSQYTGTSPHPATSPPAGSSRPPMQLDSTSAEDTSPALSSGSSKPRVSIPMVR
As to the kind of experiment: ELISA.

No constants are given. Whether binding was seen depends on the method and setting. Some binding calls cover weakened binding; strength is not graded here. Sequences can lack the tags named with a protein.

B1: recombinant soluble human CD300LG-Fc fusion protein (Fc fusion, UniProt Q6UXG3 19-247)
chain: LEGPEEISGFEGDTVSLQCTYREELRDHRKYWCRKGGILFSRCSGTIYAEEEGQETMKGRVSIRDSRQELSLIVTLWNLTLQDAGEYWCGVEKRGPDESLLISLFVFPGPCCPPSPSPTFQPLATTRLQPKAKAQQTQPPGLTSPGLYPAATTAKQGKTGAEAPPLPGTSQYGHERTSQYTGTSPHPATSPPAGSSRPPMQLDSTSAEDTSPALSSGSSKPRVSIPMVR
As for B1, the binding entry in experiment [1] is listed as “binds”. For EQQQEQQQEQQQEQVQ (peptide, UniProt P06727 374-389, N-terminal biotin) [synthetic peptide of the human ApoA4 c-terminal motif], in experiment [2], the binding result is “binds”.
